Assay results reported in US5198433A, “Lactamimides as calcium antagonists” (Merrell Dow Pharmaceuticals Inc., priority 1992, dated 1993).
For at least one compound, name, drawing or mass did not settle the structure.

Experiments:
[1] = target: [^3 H]d-cis-diltiazem binding to rat whole brain membranes (calcium ion-channel protein); assay: [^3 H]d-cis-Diltiazem binding assay (displacement from rat whole brain membranes); set-up: species or system rat (male Sprague-Dawley); conditions: Table 1, displacement of 3H diltiazem, 25° C., n = 3, Cheng & Prusoff
Experimental: The whole brain from male Sprague-Dawley rats (200-300 g) was dissected and homogenized in cold 50 mM Tris-HCl buffer (pH 7.4) for 2 x 30 second periods by Polytron (Brinkmann, setting No. 5). The homogenate was washed 2 times (48,000 ×g for 10 minutes, 4° C.) with intermittent resuspension of the pellet in fresh buffer. The final pellet was resuspended to an original tissue concentration of 100 mg/ml in Tris-HCl buffer. […] The reaction was terminated by rapid filtration under a vacuum through 0.05% polyethylenimine-pretreated Whatman GF/B glass fiber filters. Filters were immediately washed 2 times with 4 ml of cold Tris-HCl buffer. Pretreatment of the filters with 0.05% polyethylenimine served to eliminate [^3 H]d-cis-diltiazem binding to the filter. The filters were dried and the radioactivity in the filters was extracted overnight in scintillation fluid.

[2] = system: T1, K^+ -depolarized guinea pig ileum or taenia (Cavia porcellus); assay: Antagonism of Ca^++ -induced contractions of K^+ -depolarized guinea pig taenia or ileum; type: cell-based; conditions: FIG. 6; 40 mM K^+ -depolarized guinea pig ileum
T1 construct: pieces of ileum, 2 cm in length, from male guinea pigs (200-400 g) were set up in isolated organ baths; from tissue; host or cells: strips of taenia from the caecum or pieces of ileum of male guinea pigs
Experimental: Strips of taenia from the caecum or pieces of ileum, 2 cm in length, from male guinea pigs (200-400 g) were set up in isolated organ baths in Ca^++ -free K^+ Tyrode's solution (mM NaCl 137, KCl 40, NaH2 PO4 0.4, NaHCO3 11.9, glucose 5.5) and gassed with 95% O2, 5% CO2 at 37° C. Contractions were measured with isotonic transducers with a 1 g load. Cumulative dose-response curves were obtained. Tissues were then washed and incubated with the compounds for 20-25 minutes and then Ca^++ concentration response curves re-established. […] Dose ratios were determined graphically at ED50 values from the Ca^++ dose-response curve and Schild plots were constructed to determine pA2 value using inverse regression line analysis. Alternatively, when only one concentration of an antagonist was used, pA2 values were calculated according to the method of J. M. Van Rossum, Arch. Int. Pharmacodyn Ther. 143: 299-330 (1963).

c1ccc(-c2ccccc2N=C2CCCCCCCCCCCN2)cc1 [Test Compound 2, 2-(o-biphenylylimino)azacyclotridecane]
pKi [1]: 6.51
mean slope (±S.D.) of Schild plot [2]: 1.02 (0.20)
